In the supplement of paper PMC10849652:
Some of the results follow.

The chains behind the UniProt entries cited, without tags or fusion partners. Where a name states a change or a piece, a line headed by the entry shows the natural chain unless it says otherwise.
UniProt P28062: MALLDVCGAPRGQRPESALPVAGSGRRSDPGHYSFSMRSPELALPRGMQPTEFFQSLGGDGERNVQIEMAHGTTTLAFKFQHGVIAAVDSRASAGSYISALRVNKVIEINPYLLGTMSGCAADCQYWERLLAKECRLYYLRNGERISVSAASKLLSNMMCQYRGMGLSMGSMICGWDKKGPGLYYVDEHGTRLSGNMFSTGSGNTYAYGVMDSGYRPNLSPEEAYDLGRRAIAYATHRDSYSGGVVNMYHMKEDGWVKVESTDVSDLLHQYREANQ
UniProt Q05397, whole entry, looked up: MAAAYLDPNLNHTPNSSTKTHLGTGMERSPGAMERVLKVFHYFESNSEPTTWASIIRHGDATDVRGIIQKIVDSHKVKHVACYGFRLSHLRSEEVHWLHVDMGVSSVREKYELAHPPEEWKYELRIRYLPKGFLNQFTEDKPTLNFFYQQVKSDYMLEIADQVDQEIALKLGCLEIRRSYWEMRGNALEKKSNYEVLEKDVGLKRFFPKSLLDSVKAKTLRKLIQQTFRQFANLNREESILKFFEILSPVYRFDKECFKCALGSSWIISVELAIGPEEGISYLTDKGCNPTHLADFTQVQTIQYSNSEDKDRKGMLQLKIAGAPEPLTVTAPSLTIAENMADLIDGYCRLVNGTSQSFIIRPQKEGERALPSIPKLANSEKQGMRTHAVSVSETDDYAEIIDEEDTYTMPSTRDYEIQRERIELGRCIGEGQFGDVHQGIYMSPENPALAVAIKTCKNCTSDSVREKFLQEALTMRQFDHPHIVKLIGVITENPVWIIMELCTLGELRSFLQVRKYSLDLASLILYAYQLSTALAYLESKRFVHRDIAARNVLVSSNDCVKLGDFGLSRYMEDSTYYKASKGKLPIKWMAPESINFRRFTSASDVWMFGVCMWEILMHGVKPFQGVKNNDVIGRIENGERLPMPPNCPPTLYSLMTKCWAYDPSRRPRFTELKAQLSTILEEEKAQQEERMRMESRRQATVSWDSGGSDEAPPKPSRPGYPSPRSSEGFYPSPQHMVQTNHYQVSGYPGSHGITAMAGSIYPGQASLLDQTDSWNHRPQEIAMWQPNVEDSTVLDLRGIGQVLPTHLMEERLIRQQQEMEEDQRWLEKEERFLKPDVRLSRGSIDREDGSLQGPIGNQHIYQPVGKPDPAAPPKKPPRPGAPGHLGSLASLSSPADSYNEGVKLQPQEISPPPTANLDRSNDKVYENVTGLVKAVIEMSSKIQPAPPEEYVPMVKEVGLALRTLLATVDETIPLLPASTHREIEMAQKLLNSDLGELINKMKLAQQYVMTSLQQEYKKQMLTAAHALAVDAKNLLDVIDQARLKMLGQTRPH
UniProt P43115: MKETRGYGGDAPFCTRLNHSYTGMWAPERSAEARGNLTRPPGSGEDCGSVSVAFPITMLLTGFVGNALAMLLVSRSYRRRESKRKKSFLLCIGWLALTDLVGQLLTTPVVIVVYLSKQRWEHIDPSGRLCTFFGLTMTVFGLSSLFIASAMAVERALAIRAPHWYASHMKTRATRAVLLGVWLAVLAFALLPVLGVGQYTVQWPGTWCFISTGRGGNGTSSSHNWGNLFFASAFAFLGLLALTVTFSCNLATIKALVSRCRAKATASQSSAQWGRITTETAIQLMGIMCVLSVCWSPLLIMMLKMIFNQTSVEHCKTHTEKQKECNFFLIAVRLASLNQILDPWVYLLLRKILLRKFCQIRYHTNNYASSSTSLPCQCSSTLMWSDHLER
UniProt P10586, whole entry, looked up: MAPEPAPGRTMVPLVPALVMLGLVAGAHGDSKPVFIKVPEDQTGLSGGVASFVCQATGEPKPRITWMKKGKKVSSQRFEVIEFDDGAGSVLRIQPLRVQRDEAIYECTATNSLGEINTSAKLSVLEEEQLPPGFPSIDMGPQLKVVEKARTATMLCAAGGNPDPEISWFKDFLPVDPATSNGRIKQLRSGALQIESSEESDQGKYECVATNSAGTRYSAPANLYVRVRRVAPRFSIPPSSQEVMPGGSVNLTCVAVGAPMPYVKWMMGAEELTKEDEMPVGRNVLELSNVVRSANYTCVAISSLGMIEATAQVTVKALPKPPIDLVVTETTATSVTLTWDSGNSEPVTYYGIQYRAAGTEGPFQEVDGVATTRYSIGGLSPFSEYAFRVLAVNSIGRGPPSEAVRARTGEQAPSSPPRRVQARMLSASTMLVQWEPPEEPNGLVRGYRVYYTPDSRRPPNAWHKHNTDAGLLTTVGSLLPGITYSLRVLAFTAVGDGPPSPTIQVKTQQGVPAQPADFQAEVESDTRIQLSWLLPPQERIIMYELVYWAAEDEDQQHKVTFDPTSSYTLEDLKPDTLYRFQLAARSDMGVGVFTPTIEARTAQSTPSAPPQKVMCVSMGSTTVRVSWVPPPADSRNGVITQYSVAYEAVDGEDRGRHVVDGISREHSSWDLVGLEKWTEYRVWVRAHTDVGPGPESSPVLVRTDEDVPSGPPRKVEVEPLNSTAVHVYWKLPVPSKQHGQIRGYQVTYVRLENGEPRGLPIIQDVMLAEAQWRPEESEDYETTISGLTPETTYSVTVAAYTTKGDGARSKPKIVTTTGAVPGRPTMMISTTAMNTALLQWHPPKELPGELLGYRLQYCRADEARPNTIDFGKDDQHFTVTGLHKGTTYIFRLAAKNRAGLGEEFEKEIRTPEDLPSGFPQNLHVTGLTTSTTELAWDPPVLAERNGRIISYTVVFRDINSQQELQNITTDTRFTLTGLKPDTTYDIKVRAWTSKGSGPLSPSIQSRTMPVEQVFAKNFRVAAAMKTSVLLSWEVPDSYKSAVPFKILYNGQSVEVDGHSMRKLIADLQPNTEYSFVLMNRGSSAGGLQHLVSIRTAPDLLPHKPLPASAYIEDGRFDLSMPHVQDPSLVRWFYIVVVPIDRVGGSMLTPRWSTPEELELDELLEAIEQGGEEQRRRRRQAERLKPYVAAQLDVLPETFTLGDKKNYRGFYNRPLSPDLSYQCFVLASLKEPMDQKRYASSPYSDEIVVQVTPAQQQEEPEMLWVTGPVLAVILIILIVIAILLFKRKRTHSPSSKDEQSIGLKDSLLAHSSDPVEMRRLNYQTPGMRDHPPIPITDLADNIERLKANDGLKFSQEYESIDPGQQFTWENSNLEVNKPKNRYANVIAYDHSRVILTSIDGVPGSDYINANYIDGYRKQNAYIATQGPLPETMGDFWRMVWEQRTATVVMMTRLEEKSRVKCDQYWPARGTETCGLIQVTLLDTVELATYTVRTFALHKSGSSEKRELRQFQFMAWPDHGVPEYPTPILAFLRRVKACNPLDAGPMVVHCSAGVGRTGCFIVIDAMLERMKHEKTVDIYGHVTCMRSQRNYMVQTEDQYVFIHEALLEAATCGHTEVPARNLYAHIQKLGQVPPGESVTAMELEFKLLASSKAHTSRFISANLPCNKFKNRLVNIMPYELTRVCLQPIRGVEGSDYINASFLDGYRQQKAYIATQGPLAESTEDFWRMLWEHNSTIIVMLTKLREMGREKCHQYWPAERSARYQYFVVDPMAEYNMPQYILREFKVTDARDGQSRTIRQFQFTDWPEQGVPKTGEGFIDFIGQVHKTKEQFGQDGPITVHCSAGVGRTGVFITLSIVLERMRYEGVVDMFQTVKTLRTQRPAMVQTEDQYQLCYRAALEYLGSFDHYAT
UniProt P79522: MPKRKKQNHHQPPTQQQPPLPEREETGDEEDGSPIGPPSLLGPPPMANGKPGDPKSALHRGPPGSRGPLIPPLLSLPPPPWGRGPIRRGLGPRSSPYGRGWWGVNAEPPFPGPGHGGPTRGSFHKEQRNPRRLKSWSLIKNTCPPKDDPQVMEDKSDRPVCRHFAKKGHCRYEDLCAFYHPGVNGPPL
UniProt Q15185: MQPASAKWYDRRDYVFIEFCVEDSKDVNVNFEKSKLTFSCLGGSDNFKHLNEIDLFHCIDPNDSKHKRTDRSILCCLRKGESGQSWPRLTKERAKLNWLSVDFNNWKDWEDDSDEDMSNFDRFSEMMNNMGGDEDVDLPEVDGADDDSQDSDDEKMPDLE
UniProt P60484: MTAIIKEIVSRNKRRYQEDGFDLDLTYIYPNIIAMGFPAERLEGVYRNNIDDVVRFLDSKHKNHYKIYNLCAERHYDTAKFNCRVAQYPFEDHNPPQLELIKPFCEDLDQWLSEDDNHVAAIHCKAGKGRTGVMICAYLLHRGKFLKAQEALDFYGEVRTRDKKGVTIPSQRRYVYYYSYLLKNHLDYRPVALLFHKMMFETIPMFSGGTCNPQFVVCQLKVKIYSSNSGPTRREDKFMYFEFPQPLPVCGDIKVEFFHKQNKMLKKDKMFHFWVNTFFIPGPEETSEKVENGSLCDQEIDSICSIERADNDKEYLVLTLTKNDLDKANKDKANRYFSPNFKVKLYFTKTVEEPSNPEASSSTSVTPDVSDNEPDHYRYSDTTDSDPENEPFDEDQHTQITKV
UniProt P40306: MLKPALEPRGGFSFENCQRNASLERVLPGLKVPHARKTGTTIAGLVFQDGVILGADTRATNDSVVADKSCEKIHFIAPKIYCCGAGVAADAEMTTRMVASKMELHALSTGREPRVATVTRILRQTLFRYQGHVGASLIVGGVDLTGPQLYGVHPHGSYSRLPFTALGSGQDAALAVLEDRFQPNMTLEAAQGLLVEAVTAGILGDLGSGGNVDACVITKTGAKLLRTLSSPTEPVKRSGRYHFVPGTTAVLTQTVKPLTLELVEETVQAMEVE
UniProt Q16651: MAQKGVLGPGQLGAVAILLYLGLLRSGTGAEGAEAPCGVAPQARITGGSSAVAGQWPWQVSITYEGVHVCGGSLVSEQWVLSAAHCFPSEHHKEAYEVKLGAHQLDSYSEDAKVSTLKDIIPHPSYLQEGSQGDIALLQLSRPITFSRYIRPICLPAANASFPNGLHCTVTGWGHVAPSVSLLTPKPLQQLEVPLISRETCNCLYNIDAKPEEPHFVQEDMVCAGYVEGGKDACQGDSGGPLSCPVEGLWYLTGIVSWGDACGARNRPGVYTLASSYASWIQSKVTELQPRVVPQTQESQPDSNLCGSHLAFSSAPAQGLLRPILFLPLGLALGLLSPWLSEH

Tests used:
Assay in all cases: log2 fold change, soluble protein after heating vs DMSO (PISA); higher = thermal stabilisation; K562 lysate, 10 uM; active = over 0.2 and 3.5 SD of the protein, either way, in both replicates (recomputed)
vorinostat = compound: O=C(CCCCCCC(=O)Nc1ccccc1)NO [vorinostat]
Method in brief: (§1)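 K562 pellets were dounce-homogenised in PBS pH 7.4 containing 1 mM MgCl2, and the crude extract, at 1 mg/mL protein, was exposed to 10 μM compound for 30 min. Aliquots were heated for 3 min across 48°C-58°C, pooled, brought to 0.5% NP-40 at 4°C and spun at 21,000xg for 90 min, with the supernatant taken as soluble protein. TMTpro 16plex LC-MS/MS with equalised channel sums quantified that protein. Values are log-two fold changes in thermal stability relative to solvent controls, taken from duplicates.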

silmitasertib = compound: O=C(O)c1ccc2c(c1)nc(Nc1cccc(Cl)c1)c1ccncc12 [silmitasertib]
Method in brief: as §1

[1] = compound: O=C1NC(=O)C(c2cnc3ccccn23)=C1c1cn2c3c(cc(F)cc13)CN(C(=O)N1CCCCC1)CC2
Method in brief: as §1

entospletinib = compound: c1cn2cc(-c3ccc4cn[nH]c4c3)nc(Nc3ccc(N4CCOCC4)cc3)c2n1 [entospletinib]
Method in brief: as §1

[2] = compound: NCC(=O)Nc1ccc(-n2nc(C(F)(F)F)cc2-c2ccc3c(ccc4ccccc43)c2)cc1
Method in brief: as §1

Measured: log2 fold change

PSMB8 (UniProt P28062)
inactive: vorinostat 0.067 | silmitasertib -0.043 | [1] 0.13 | entospletinib 0.035

PTK2 isoform 2 (UniProt Q05397)
inactive: vorinostat -0.056 | silmitasertib 0.046 | entospletinib 0.007

PTGER3 isoform 2 (UniProt P43115)
inactive: [1] -0.03

PTPRF (UniProt P10586)
inactive: [2] -0.356 | [1] -0.052

PRR3 (UniProt P79522)
inactive: [2] 0.228 | [1] -0.018

PTGES3 (UniProt Q15185)
inactive: [2] -0.013 | vorinostat -0.06 | silmitasertib 0.012 | [1] 0.02 | entospletinib 0.04

PTEN isoform 2 (UniProt P60484)
inactive: vorinostat -0.106 | silmitasertib 0.027 | [1] 0.008 | entospletinib -0.085

PSMB10 (UniProt P40306)
inactive: [2] 0.015 | [1] 0.012 | entospletinib 0.059

PRSS8 (UniProt Q16651)
inactive: vorinostat 0.018 | silmitasertib -0.043 | [1] 0.084
